Our source for the binding values is article PMC6349343.

Chains of the proteins cited; added tags and fusions are not shown.
UniProt Q8IYW5: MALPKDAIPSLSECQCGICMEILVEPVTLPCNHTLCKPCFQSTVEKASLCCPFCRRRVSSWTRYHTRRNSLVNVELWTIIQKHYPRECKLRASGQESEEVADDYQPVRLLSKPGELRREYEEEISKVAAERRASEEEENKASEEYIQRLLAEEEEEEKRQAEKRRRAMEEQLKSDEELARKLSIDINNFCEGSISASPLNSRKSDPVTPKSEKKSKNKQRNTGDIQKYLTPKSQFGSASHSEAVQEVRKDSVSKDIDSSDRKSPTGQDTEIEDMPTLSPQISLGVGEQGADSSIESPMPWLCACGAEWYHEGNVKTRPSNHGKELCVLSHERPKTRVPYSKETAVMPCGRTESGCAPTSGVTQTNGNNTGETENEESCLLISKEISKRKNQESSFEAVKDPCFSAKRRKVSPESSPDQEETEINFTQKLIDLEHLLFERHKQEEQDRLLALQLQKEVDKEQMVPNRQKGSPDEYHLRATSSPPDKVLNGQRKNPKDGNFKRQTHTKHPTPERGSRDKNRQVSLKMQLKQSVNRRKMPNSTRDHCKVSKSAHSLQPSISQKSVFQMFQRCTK
UniProt P42224: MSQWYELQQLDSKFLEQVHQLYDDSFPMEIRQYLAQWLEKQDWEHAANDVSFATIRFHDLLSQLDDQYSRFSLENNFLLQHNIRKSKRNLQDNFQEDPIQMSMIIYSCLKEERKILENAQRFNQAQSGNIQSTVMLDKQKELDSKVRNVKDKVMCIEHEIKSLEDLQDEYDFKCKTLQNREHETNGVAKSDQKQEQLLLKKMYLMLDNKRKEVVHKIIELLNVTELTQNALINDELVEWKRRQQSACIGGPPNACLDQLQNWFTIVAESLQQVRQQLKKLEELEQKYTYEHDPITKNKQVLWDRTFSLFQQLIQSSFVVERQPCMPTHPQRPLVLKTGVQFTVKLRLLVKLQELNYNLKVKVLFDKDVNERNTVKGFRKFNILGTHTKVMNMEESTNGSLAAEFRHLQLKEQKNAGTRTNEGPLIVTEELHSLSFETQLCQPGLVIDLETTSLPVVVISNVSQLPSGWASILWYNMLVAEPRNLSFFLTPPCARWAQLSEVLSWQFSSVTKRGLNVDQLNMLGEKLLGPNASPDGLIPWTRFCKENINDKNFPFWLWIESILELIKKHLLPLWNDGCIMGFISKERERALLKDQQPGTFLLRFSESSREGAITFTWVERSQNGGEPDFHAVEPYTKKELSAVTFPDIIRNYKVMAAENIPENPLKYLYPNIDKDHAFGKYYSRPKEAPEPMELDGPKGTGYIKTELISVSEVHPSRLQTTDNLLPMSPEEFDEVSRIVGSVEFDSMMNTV

Assay [1] has as its target RNF168 (RING finger protein 168) (human (endogenous in NEC)) (UniProt Q8IYW5). As to the kind of experiment: co-IP; endogenous proteins, NEC cells separated into cytosol and nuclear fractions (subcellular protein fractionation kit, Thermo Scientific 78840); IP with RNF168 antibody in both the cytosol and nuclear lysis, STAT1 antibody for detection; result told for the nuclear fraction.

Assay [2] shares this target. Description: co-IP; endogenous proteins, NEC cells harvested with NP-40 lysis buffer; lysate pre-cleared with mouse IgG 2 hours, incubated overnight with RNF168 mouse antibody (SC-101125), mouse IgG as negative control; immunoblot with STAT1 antibody (9172).

No constants are given. Whether binding was seen depends on the method and setting. In cells and extracts the contact can be indirect. Some binding calls cover weakened binding; strength is not graded here.

STAT1 (from UniProt P42224 1-750): the binding result in assay [1] and in assay [2] was “binds” each time.
